Data as given in PubChem BioAssay (NCATS).
“And” between values parts separate entries of the source, which are not always exact repeats. Equal values may be shown once. The shares of active, inactive and inconclusive entries below differ from those in the screen. For some assays here: Potencies beside an inconclusive call are fits to weak or partial responses and may not hold up. Some compounds were tested as several samples or in several runs, with calls that do not always agree. The source made the active and inactive calls. Calls come from the whole dose curve; as a rule, active = well fitted curve in the direction sought with a large enough effect; inconclusive = small, poorly fitted or top-dose-only effect, or another doubt; inactive = no such curve, though single readings can be large; an effect the other way counts as inactive or inconclusive.

Assays:
[1] = Quantitative High-Throughput drug screen in 47 multiple myeloma cell lines against the NCATS MIPE library collection: EJM_DSMZ cell viability assay (AID 1918926; note: nearly all actives have a fitted effect of over 30% in size)
In short: (§1)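 Steps: seed 500 cells per well; pin-transfer MIPE 4.0 library; incubate 48 h at 37C, 5% CO2, humidified; add CellTiter-Glo, 5 min room temperature; read luminescence.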

[2] = Quantitative High-Throughput drug screen in 47 multiple myeloma cell lines against the NCATS MIPE library collection: AMO1_DSMZ cell viability assay (AID 1918927; note: nearly all actives have a fitted effect of over 30% in size)
In short: as §1

[3] = Quantitative High-Throughput drug screen in 47 multiple myeloma cell lines against the NCATS MIPE library collection: Karpas620_DSMZ cell viability assay (AID 1918959); note: nearly all actives have a fitted effect of over 30% in size
In short: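 Approved and investigational drugs from MIPE 4.0 were added by pin tool to 500 cells per well. After 48 hours at 37C, ATP-based CellTiter-Glo luminescence indicated remaining viability.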

[4] = Quantitative High-Throughput drug screen in 47 multiple myeloma cell lines against the NCATS MIPE library collection: KMM1_JCRB cell viability assay (AID 1918960); note: nearly all actives have a fitted effect of over 30% in size
In short: (§2)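 500 cells/well; MIPE 4.0 library pinned in; 48 h, 37 °C, 5% CO2; CellTiter-Glo ATP luminescence. Controls: DMSO = 100% viability, medium only = 0%.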

[5] = Quantitative High-Throughput drug screen in 47 multiple myeloma cell lines against the NCATS MIPE library collection: KMS12BM_JCRB cell viability assay (AID 1918971); note: nearly all actives have a fitted effect of over 35% in size
In short: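 Luminescent ATP measurement with CellTiter-Glo gives viability, scaled between DMSO-only wells (100%) and media-only wells (0%). Cells, 500 per well, faced library compounds for 48 hours at 37C.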

[6] = Quantitative High-Throughput drug screen in 47 multiple myeloma cell lines against the NCATS MIPE library collection: KMS12PE_JCRB cell viability assay (AID 1918972); note: nearly all actives have a fitted effect of over 30% in size
In short: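 Inhibition of cell viability is measured here. Each line was plated at 500 cells per well, treated with MIPE 4.0 drugs, kept 48 hours at 37C, then assayed for ATP content by CellTiter-Glo luminescence.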

[7] = Quantitative High-Throughput drug screen in 47 multiple myeloma cell lines against the NCATS MIPE library collection: U266_ATCC cell viability assay (AID 1919864); note: nearly all actives have a fitted effect of over 35% in size
In short: (§3)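 ATP-based luminescence (CellTiter-Glo, 5 min RT incubation) quantified surviving cells following two days' treatment with MIPE 4.0 agents at 37 °C, 5% CO2.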

[8] = Quantitative High-Throughput drug screen in 47 multiple myeloma cell lines against the NCATS MIPE library collection: RPMI8226_ATCC cell viability assay (AID 1919871); note: nearly all actives have a fitted effect of over 30% in size
In short: as §3

[9] = Quantitative High-Throughput drug screen in 47 multiple myeloma cell lines against the NCATS MIPE library collection: KMS11_JCRBsus cell viability assay (AID 1919873); note: nearly all actives have a fitted effect of over 50% in size
In short: as §3

[10] = qHTS of pediatric cancer cell lines to identify multiple opportunities for drug repurposing: Primary screen for SK-N-MC cells (AID 1347093); conditions: SK-N-MC viability, CellTiter-Glo luminescence, 48 h; activity change, negative = cytotoxic: at 46 µM (top of the series)
In short: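 Metabolically active cells were quantified by ATP-dependent luminescence (CellTiter-Glo, 15 min at room temperature) following 48 h treatment. Cells had been plated at 500-1,000 per well and settled for 5 h beforehand.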

[11] = qHTS of pediatric cancer cell lines to identify multiple opportunities for drug repurposing: Primary screen for RD cells (AID 1347104); note: nearly all actives have a fitted effect of over 55% in size;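 for activity change, negative = cytotoxic: plate controls were DMSO for no effect and bortezomib for full effect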
In short: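 Viability was measured as metabolically active cells after 48 hours of treatment, read by CellTiter-Glo luminescence. Compounds were tested at multiple final concentrations, giving concentration-response curves.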

[12] = test system: Zika virus NS2B-NS3 protease; experiment: Primary screen GU AMC qHTS for Zika virus inhibitors (AID 1347154); note: nearly all actives have a fitted effect of over 70% in size
In short: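 Fluorogenic AMC-substrate cleavage by noncovalent NS2B-NS3 protease complex (25 nM, pH 8.0 Tris buffer with Tween 20) followed for 15 minutes at room temperature (~20% conversion). Percent inhibition from ex340/em450 signal change, fitted by 4-parameter Hill equation.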

[13] = test system: OV90; experiment: Primary qHTS to identify gynecologic anti-cancer compounds using libraries of approved drugs and bioactive compounds (AID 1345084); conditions: Gynecologic cancer cell panel viability, ATPlite luminescence, 48 h; series mostly up to 57.5 µM; note: nearly all actives have a fitted effect of over 55% in size; for activity change, negative = cytotoxicity: % is set by controls: 0 for no effect and ±100 for the full control effect
In short: (§4)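 Luminescence from the ATPlite ATP-monitoring reagent indicates viable cell number; lower signal means cytotoxicity. Cells received compound 16 h after seeding and were exposed for 48 h across five concentrations.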

[14] = test system: PA-1; experiment: as above; conditions: Gynecologic cancer cell panel viability, ATPlite luminescence, 48 h; series mostly up to 57.5 µM
In short: as §4

[15] = Quantitative High-Throughput drug screen in 47 multiple myeloma cell lines against the NCATS MIPE library collection: ARP1_JJKsccF8 cell viability assay (AID 1918928; note: nearly all actives have a fitted effect of over 40% in size); conditions: ARP1 myeloma cells viability, CellTiter-Glo ATP, 48 h; viability: at 45.8 µM (top of the series)
In short: as §2

[16] = qHTS Assay for Identifying Gametocytocidal Compounds (AID 743244); conditions: P. falciparum 3D7 stage III-V gametocytes, alamarBlue, 72 h; max response: hits give low values
In short: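 Compounds are pinned into medium, gametocytes (stage III–V, 3D7, 20,000 cells/well) added, and plates held 72 h at 37 °C in 5% CO2. AlamarBlue follows for 24 h before fluorescence reading.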

[17] = qHTS assay to identify inhibitors of the type 1 interferon - major histocompatibility complex class I in skeletal muscle: Counter screen cell viability and HiBit confirmation (AID 1347412); conditions: iHSKM muscle cells + IFN-b, HiBiT or CellTiter-Glo, 24 h; for activity change, negative = inhibition: at 45.9 µM (top of the series); for activity change, negative = inhibition: % is set by controls: 0 for no effect and ±100 for the full control effect; for all read-outs here: nearly all actives have a fitted effect of over 60% in size
In short: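 HLA-B*08:01–HiBiT knock-in immortalized human myoblasts (C25cl48) stimulated with 4.0 ng/ml human IFN-beta and dosed with compound in a 12-point 1:3 titration (top final 46 uM). After 24 hrs at 37 C, HiBiT lytic luminescence or CellTiter Glo ATP read out.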

[18] = test system: CASKI; experiment: Primary qHTS to identify gynecologic anti-cancer compounds using libraries of approved drugs and bioactive compounds (AID 1345084); conditions: Gynecologic cancer cell panel viability, ATPlite luminescence, 48 h; activity change, negative = cytotoxicity: at 57.5 µM (top of the series); note: nearly all actives have a fitted effect of over 55% in size; for activity change, negative = cytotoxicity: % is set by controls: 0 for no effect and ±100 for the full control effect
In short: as §4

[19] = Primary qHTS for small molecule stabilizers of the endoplasmic reticulum resident proteome: Secreted ER Calcium Modulated Protein (SERCaMP) assay (AID 1508630); conditions: SH-SY5Y GLuc-SERCaMP secretion, thapsigargin, luminescence; activity change, negative = inhibition: at 38.4 µM (top of the series)
In short: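 The SH-SY5Y reporter protocol was run at 3 concentrations up to 38.3 uM (primary) or 11 concentrations (follow-up): 16 h compound, 100 nM thapsigargin for 4 h, then extracellular luciferase luminescence.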

[20] = Quantitative High-Throughput drug screen in 47 multiple myeloma cell lines against the NCATS MIPE library collection: PCM6_Riken cell viability assay (AID 1919870); note: nearly all actives have a fitted effect of over 30% in size
In short: as §3
Potency is the fitted concentration of half-maximal effect.

CC(C)OC(=O)C1=CN(C(=O)c2ccc(F)c(F)c2)CC(C)(C)c2c1[nH]c1ccccc21
Potency [1]: inactive | Potency [2]: inconclusive: 0.0017 µM [rising, full curve, poor fit] | Potency [3]: inconclusive: 0.0059 µM [rising, full curve, poor fit] | Potency [4]: inactive | Potency [5]: inconclusive: 0.0012 µM [rising, full curve] | Potency [6]: inconclusive: 0.0017 µM [rising, full curve, poor fit] | Potency [7]: inconclusive: 0.166 µM [rising, full curve, poor fit] | Potency [8]: inactive | Potency [9]: inactive

O=C1Nc2ccc(Cl)cc2[C@@](C#CC2CC2)(C(F)(F)F)O1
Potency [10]: inconclusive: 33.5 µM [cytotoxic, single point] | Potency [11]: inactive | Potency [12]: inconclusive: 14.1 µM [inhibitor, partial curve, poor fit] | Potency [13]: inconclusive: 39.8 µM [cytotoxic, partial curve, poor fit] | Potency [14]: inconclusive: 20 µM [cytotoxic, single point]

Cc1[nH]c2ccccc2c1CCNCc1ccc(C=CC(=O)NO)cc1
Potency [10]: active: 0.148 µM | Potency [2]: inconclusive: 0.0935 µM [cytotoxic, full curve, poor fit] | Potency [15]: active: 0.0418 µM | Potency [3]: inconclusive: 0.118 µM [cytotoxic, full curve, poor fit]

C=CC(=O)N1CCC[C@@H](n2nc(-c3ccc(Oc4ccccc4)cc3)c3c(N)ncnc32)C1
Potency [12]: inconclusive: 21.5 µM [inhibitor, partial curve] | Potency [8]: active: 20.9 µM | Potency [14]: inactive

O=C(NCCCNc1nc(Nc2cccc(NC(=O)N3CCCC3)c2)ncc1I)c1cccs1
Potency [11]: active: 16.6 µM | Potency [2]: inconclusive: 0.105 µM [cytotoxic, full curve, poor fit] | Potency [4]: inactive | Potency [5]: active: 18.7 µM | Potency [7]: active: 18.7 µM | Potency [8]: inconclusive: 26.4 µM [cytotoxic, single point] | Potency [9]: inconclusive: 4.18 µM [cytotoxic, partial curve, poor fit]

CC(C)c1ccc(Cn2ccc3c4c(N)nc(NC5CC5)nc4ccc32)cc1
Potency [16]: active: 14.8 µM | Potency [12]: inconclusive: 21.2 µM [inhibitor, single point] and inconclusive: 42.9 µM [inhibitor, single point] | Potency [1]: active: 14.8 µM | Potency [4]: active: 2.35 µM | Potency ([17]; Viability): active: 27.9 µM

NC(=O)c1c(OCc2c(F)cc(Br)cc2F)nsc1NC(=O)NCCCCN1CCCC1
Potency [16]: inconclusive: 29.6 µM [inhibitor, single point] | Potency [2]: inconclusive: 0.118 µM [cytotoxic, partial curve, poor fit] | Potency [15]: inconclusive: 29.6 µM [cytotoxic, single point] | Potency [6]: inconclusive: 0.264 µM [cytotoxic, partial curve, poor fit] | Potency [9]: active: 20.9 µM | Potency [18]: inconclusive: 35.5 µM [cytotoxic, partial curve, poor fit] | activity change, negative = inhibition ([17]; HiBiT): inactive: -22.6% | Potency ([17]; Viability): inconclusive: 27.9 µM [cytotoxic, single point]

COc1cc(C(C)C)c2c(c1)S(=O)(=O)N(COc1cc(=O)n3cccc(OCCN4CCCCC4)c3n1)C2=O
Potency [19]: inconclusive: 31.6 µM [inhibitor, partial curve, poor fit] | viability [15]: inconclusive: 62.7% [cytotoxic] | Potency [5]: inconclusive: 26.4 µM [cytotoxic, single point] | Potency [7]: inconclusive: 33.2 µM [cytotoxic, single point] | Potency [8]: inactive | Potency [9]: inconclusive: 29.6 µM [cytotoxic, single point] | Potency ([17]; HiBiT): inconclusive: 39.4 µM [inhibitor, single point] | activity change, negative = inhibition ([17]; Viability): inactive: -20.7%

CC(=O)O[C@@]12CO[C@@H]1C[C@H](O)[C@@]1(C)C(=O)[C@H](O)C3=C(C)[C@@H](OC(=O)[C@H](O)[C@@H](NC(=O)OC(C)(C)C)c4ccccc4)C[C@@](O)([C@@H](OC(=O)c4ccccc4)[C@H]21)C3(C)C
Potency [16]: active: 18.7 µM | Potency [11]: inconclusive: 0.0011 µM [cytotoxic] | Potency [14]: inconclusive: 0.0794 µM | activity change, negative = inhibition ([17]; HiBiT): inactive: -20.7% | activity change, negative = inhibition ([17]; Viability): inactive: -25.4%

Cc1cc(Nc2nc(N[C@@H](C)c3ncc(F)cn3)ncc2Cl)n[nH]1
Potency [2]: inconclusive: 0.0021 µM [rising, full curve] | Potency [15]: inconclusive: 20.9 µM [cytotoxic, partial curve] | Potency [3]: inconclusive: 0.0332 µM [rising, full curve, poor fit] | Potency [5]: inconclusive: 0.0019 µM [rising, full curve] | Potency [6]: inconclusive: 0.0019 µM [rising, full curve, poor fit] | Potency [20]: active: 6.62 µM | Potency [9]: inconclusive: 10.5 µM [cytotoxic, full curve] | Potency [18]: inconclusive: 12.6 µM [cytotoxic, partial curve, poor fit] | Potency [13]: inconclusive: 4.47 µM [cytotoxic, partial curve] | Potency [14]: inconclusive: 8.91 µM [cytotoxic, partial curve] | Potency ([17]; Viability): inconclusive: 7.01 µM [cytotoxic, partial curve, poor fit]
